± gives the standard deviation of the averaged measurements. The list shows a part of the results, in another mix than the full data.

Protein sequences, listed by entry. Tags and fused reporters are not part of them. Lines headed by an entry give the natural chain unless they say otherwise; changes in a name come on top.
UniProt Q9BRZ2: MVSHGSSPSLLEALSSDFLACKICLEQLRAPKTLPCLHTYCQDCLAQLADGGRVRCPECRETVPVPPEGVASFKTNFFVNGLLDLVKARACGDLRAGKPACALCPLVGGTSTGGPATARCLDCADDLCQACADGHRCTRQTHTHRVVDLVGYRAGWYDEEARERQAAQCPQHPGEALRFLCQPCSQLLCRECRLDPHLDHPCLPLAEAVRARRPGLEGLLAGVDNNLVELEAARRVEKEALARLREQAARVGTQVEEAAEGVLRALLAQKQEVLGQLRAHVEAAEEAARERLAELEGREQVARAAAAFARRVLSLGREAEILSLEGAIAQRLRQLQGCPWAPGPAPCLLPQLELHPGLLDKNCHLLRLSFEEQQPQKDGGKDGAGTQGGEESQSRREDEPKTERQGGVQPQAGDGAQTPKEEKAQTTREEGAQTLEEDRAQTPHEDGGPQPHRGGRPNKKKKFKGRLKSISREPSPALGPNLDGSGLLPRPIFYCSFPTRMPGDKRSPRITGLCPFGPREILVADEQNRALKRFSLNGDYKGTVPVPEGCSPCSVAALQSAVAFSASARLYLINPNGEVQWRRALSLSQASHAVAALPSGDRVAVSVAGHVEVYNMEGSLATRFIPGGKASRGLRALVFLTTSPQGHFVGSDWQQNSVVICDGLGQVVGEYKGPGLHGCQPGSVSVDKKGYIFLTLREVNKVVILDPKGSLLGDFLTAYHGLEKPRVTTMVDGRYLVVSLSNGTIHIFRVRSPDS
UniProt Q99941: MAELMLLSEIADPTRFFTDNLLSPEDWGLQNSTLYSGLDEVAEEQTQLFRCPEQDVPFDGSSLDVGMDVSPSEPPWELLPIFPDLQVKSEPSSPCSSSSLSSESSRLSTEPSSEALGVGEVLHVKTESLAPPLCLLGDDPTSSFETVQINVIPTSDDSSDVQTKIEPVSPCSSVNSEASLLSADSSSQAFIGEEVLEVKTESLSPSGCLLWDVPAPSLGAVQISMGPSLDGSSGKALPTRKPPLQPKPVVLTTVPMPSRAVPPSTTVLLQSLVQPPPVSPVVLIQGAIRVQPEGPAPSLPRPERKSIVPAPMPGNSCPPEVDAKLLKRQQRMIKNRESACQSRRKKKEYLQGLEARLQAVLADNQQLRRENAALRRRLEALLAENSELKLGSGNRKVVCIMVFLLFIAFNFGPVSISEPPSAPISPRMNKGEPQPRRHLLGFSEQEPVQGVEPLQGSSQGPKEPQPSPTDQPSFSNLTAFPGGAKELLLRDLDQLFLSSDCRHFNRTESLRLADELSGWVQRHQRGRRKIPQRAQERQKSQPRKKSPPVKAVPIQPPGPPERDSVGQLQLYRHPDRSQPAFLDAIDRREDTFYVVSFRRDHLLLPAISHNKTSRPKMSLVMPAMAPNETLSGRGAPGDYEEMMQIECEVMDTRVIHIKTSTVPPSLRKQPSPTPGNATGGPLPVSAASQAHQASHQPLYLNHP
UniProt Q9BUH6, whole entry: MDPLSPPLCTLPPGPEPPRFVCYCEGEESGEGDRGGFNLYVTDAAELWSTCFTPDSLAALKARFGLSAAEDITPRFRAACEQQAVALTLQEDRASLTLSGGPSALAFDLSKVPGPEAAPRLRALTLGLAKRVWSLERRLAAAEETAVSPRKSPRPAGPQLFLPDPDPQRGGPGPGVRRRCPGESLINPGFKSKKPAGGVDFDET
UniProt Q99797: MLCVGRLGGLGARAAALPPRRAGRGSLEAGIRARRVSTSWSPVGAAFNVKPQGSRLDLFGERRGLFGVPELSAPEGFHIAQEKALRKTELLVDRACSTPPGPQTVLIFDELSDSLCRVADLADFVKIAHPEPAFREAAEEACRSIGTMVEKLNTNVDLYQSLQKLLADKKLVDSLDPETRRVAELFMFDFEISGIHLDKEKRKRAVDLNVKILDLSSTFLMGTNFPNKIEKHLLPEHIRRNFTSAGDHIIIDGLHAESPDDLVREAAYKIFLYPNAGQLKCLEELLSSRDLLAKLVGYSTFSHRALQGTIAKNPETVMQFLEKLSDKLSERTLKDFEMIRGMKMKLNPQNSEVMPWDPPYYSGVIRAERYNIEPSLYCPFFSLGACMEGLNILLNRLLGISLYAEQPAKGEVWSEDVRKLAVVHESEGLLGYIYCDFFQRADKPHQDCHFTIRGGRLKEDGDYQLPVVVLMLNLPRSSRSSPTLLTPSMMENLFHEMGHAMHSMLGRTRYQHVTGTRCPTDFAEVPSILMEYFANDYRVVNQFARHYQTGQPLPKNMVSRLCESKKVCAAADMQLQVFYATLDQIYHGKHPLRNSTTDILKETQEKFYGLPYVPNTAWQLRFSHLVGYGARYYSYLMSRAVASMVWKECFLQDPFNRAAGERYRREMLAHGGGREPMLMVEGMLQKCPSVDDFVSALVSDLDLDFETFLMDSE
UniProt Q9BVC4, whole entry: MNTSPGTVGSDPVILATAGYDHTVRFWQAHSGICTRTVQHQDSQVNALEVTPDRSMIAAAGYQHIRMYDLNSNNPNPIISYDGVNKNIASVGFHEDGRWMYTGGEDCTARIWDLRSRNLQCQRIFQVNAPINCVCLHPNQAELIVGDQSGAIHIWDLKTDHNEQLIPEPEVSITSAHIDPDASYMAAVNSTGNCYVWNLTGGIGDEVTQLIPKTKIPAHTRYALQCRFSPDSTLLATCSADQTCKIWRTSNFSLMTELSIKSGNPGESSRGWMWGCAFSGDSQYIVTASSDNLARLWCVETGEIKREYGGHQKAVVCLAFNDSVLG
UniProt Q9BYV9: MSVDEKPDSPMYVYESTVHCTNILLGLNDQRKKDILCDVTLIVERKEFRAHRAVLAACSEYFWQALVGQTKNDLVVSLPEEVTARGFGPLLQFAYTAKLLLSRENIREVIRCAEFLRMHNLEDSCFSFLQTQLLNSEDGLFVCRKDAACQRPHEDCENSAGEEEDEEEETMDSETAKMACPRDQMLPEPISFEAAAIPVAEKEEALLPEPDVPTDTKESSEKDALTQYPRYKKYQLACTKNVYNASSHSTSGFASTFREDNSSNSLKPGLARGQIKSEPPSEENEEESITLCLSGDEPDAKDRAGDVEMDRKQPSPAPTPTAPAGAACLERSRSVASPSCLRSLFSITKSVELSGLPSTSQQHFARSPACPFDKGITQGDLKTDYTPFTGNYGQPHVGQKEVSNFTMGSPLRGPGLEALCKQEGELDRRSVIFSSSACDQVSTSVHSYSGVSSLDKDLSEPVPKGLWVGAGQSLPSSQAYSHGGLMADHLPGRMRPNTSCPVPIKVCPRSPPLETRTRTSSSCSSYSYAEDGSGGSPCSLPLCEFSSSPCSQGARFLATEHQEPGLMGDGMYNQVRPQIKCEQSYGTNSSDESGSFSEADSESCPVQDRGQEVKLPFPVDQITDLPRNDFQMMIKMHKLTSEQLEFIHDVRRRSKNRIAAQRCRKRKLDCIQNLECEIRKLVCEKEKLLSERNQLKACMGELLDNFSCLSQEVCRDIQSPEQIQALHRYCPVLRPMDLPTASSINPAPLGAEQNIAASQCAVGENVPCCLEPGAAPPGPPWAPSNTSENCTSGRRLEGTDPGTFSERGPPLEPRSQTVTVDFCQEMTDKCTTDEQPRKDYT
UniProt Q9BXW7: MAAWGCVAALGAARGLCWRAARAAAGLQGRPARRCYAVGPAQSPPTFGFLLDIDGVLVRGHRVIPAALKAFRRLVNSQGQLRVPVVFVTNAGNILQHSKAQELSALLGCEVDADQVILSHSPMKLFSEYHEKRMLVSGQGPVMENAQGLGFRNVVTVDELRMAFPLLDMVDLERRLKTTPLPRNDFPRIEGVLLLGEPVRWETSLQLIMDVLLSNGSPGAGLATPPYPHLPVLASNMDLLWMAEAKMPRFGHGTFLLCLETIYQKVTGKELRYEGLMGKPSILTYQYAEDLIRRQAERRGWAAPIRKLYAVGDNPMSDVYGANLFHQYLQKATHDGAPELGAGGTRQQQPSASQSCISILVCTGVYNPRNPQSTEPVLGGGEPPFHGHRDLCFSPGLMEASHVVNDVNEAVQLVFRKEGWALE
UniProt Q9BVJ6: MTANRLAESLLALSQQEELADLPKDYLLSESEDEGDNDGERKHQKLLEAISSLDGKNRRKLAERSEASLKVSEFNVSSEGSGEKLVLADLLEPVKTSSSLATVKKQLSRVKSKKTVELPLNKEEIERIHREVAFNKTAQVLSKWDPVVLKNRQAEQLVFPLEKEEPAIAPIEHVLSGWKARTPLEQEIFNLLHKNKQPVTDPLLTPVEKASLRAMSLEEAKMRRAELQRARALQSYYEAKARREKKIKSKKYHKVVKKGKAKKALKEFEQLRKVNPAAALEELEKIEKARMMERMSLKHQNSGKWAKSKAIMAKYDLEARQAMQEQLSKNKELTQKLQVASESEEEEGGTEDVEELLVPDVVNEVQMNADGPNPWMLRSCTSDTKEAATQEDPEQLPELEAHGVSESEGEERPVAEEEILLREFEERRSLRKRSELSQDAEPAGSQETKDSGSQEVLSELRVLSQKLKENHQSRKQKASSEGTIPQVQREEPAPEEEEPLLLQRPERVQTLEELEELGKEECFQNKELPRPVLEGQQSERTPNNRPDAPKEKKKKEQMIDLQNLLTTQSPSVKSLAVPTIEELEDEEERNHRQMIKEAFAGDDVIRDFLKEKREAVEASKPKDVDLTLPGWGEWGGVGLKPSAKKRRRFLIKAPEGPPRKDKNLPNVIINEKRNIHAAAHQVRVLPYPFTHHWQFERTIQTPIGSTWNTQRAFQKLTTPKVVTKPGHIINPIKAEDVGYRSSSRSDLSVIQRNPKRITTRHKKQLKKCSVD
UniProt Q9BPX5, whole entry: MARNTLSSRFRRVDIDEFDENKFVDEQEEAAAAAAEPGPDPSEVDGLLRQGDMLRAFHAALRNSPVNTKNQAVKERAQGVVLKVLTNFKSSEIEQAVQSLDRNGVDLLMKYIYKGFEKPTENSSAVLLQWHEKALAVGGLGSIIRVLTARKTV
UniProt Q9BV81: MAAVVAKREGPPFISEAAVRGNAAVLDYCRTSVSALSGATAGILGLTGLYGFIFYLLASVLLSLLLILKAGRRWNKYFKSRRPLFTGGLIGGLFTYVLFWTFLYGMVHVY
UniProt Q99961: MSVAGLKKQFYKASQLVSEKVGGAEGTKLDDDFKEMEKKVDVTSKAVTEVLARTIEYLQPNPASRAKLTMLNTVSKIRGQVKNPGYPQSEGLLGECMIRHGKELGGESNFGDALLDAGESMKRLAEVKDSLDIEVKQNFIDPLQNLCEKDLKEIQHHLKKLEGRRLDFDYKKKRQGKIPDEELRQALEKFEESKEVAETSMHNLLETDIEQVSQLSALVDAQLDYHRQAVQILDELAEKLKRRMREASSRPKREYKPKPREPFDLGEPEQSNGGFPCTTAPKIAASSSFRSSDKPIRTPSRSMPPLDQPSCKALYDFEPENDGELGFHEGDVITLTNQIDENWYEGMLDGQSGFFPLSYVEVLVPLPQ
UniProt Q9BRS2: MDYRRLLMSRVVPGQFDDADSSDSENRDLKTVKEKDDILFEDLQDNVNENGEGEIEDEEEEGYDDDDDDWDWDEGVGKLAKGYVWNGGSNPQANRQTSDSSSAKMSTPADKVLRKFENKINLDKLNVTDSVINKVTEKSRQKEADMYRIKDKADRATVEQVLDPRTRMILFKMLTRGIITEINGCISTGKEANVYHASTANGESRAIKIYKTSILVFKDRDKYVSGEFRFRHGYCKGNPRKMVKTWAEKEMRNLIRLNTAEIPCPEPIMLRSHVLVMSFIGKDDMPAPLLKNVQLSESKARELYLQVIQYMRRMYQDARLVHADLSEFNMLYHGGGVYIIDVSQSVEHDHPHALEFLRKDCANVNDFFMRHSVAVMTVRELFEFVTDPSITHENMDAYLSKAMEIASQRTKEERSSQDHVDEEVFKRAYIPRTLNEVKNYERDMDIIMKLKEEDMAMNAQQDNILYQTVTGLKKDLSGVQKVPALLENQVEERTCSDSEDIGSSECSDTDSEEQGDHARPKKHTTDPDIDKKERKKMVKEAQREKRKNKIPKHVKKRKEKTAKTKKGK
UniProt Q9BRT9, whole entry: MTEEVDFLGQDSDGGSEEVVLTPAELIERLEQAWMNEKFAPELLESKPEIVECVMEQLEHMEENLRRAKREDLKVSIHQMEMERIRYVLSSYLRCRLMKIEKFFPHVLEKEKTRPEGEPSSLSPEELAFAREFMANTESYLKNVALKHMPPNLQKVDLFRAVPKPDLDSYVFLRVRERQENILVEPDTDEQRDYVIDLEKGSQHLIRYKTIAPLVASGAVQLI
UniProt Q99598: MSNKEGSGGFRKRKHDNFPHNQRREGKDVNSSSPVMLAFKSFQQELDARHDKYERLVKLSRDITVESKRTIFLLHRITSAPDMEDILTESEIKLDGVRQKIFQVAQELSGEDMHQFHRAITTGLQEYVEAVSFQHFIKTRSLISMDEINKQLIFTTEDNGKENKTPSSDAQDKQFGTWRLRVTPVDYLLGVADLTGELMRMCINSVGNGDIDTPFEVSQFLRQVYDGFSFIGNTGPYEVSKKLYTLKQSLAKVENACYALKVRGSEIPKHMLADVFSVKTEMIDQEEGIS

Compound in one assay: Nc1ncnc2c1ncn2[C@@H]1O[C@H](COP(=O)(O)OP(=O)(O)OP(=O)(O)O)[C@@H](O)[C@H]1O [adenosine triphosphate]
The assay can be described thus: NP40-soluble protein abundance relative to vehicle (solubility fold change) (ratio); higher = more soluble protein in presence of ATP. Conditions: concentration: 6mM. The essentials: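 Jurkat crude lysate (Dounce-homogenised) was treated with eight concentrations from 0.1 to 10 mM for 10 min at room temperature, then 3 min at 37 °C. It was solubilised with 0.8% NP40 and benzonase (60 min, 4 °C) and ultracentrifuged, and the supernatant was TMT-labelled for LC-MS/MS. Intensities were vsn-normalised, and the value is the fold change against the NP40-processed vehicle per replicate, from three independent experiments.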
In the case of UniProt Q9BRP8-2|Q9BRP8, the NP40-soluble protein abundance was 1.05 ± 0.14.

In the case of WDR77 (UniProt Q9BQA1), the NP40-soluble protein abundance was determined as 1.03 ± 0.04.

Take UniProt Q99729-3|Q99729: the NP40-soluble protein abundance turned out to be 1.03 ± 0.12.

In the case of TRIM56 (UniProt Q9BRZ2), the NP40-soluble protein abundance is 1.2 ± 0.11.

For UniProt Q99941 and related entries, the NP40-soluble protein abundance is 1.11 ± 0.0088.

Take UniProt Q9BUH6: the NP40-soluble protein abundance stood at 1.11 ± 0.014.

Consider RBCK1 (UniProt Q9BYM8), for which the NP40-soluble protein abundance is 0.959 ± 0.047.

On to UniProt Q9BSR8 and related entries, for which the NP40-soluble protein abundance stood at 1.01 ± 0.064.

As to MIPEP (UniProt Q99797), the NP40-soluble protein abundance amounted to 0.963 ± 0.097.

Regarding UniProt Q9BVC4 and related entries, the NP40-soluble protein abundance is 0.938 ± 0.069.

On to BACH2 (UniProt Q9BYV9), for which the NP40-soluble protein abundance amounted to 1.03 ± 0.083.

Consider UniProt Q9BUR4, for which the NP40-soluble protein abundance turned out to be 1.17 ± 0.1.

Consider UniProt Q9BXW7 and related entries, for which the NP40-soluble protein abundance amounted to 0.913 ± 0.067.

As to UniProt Q9BQC6, the NP40-soluble protein abundance was 0.98 ± 0.077.

UniProt Q9BYG3: the NP40-soluble protein abundance came to 1.1 ± 0.072.

Consider GRWD1 (UniProt Q9BQ67), for which the NP40-soluble protein abundance is 1.1 ± 0.053.

As for SGPP1 (UniProt Q9BX95), the NP40-soluble protein abundance came out at 1 ± 0.046.

On to TCF25 (UniProt Q9BQ70), for which the NP40-soluble protein abundance worked out at 1.07 ± 0.083.

On to UniProt Q99767-2, for which the NP40-soluble protein abundance turned out to be 0.978 ± 0.091.

For UniProt Q9BVJ6 and related entries, the NP40-soluble protein abundance stood at 1.22 ± 0.082.

MRPL20 (UniProt Q9BYC9): the NP40-soluble protein abundance turned out to be 0.98 ± 0.22.

Consider TARS2 (UniProt Q9BW92), for which the NP40-soluble protein abundance is 0.982 ± 0.079.

With ARPC5L (UniProt Q9BPX5), the NP40-soluble protein abundance is 0.948 ± 0.04.

As to UniProt Q9BV81, the NP40-soluble protein abundance was 0.981 ± 0.063.

For the target SH3GL1 (UniProt Q99961), the NP40-soluble protein abundance was 1 ± 0.034.

For RIOK1 (UniProt Q9BRS2), the NP40-soluble protein abundance came to 1.2 ± 0.15.

On to NAPG (UniProt Q99747), for which the NP40-soluble protein abundance turned out to be 0.981 ± 0.061.

Turning to DDA1 (UniProt Q9BW61), the NP40-soluble protein abundance is 0.978 ± 0.13.

Turning to YTHDF1 (UniProt Q9BYJ9), the NP40-soluble protein abundance was 1.05 ± 0.037.

With GINS4 (UniProt Q9BRT9), the NP40-soluble protein abundance is 1.01 ± 0.033.

In the case of TSNAX (UniProt Q99598), the NP40-soluble protein abundance came out at 0.9637 ± 0.005.

Consider VPS25 (UniProt Q9BRG1), for which the NP40-soluble protein abundance was determined as 0.964 ± 0.12.

For the target TRMT61B (UniProt Q9BVS5), the NP40-soluble protein abundance was 1 ± 0.07.

Turning to MRPL9 (UniProt Q9BYD2), the NP40-soluble protein abundance came out at 0.879 ± 0.24.

UniProt Q99504 and related entries: the NP40-soluble protein abundance amounted to 1.02 ± 0.08.

The assay is the same for the next values; noted with them: concentration: 8mM.
Take UniProt Q9BRP8-2|Q9BRP8: the NP40-soluble protein abundance was 0.946 ± 0.1.

As for WDR77 (UniProt Q9BQA1), the NP40-soluble protein abundance came out at 1.05 ± 0.017.

For the target UniProt Q99729-3|Q99729, the NP40-soluble protein abundance was 0.938 ± 0.019.

As to TRIM56 (UniProt Q9BRZ2), the NP40-soluble protein abundance was determined as 1.29 ± 0.08.

Take UniProt Q99941 and related entries: the NP40-soluble protein abundance was 1.02 ± 0.019.

In the case of UniProt Q9BUH6, the NP40-soluble protein abundance was 1.05 ± 0.021.

RBCK1 (UniProt Q9BYM8): the NP40-soluble protein abundance came out at 0.946 ± 0.05.

As for UniProt Q9BSR8 and related entries, the NP40-soluble protein abundance amounted to 0.98 ± 0.044.

For MIPEP (UniProt Q99797), the NP40-soluble protein abundance came out at 0.99 ± 0.04.

Take UniProt Q9BVC4 and related entries: the NP40-soluble protein abundance was determined as 0.982 ± 0.073.

Turning to BACH2 (UniProt Q9BYV9), the NP40-soluble protein abundance is 0.982 ± 0.05.

On to UniProt Q9BUR4, for which the NP40-soluble protein abundance was 1.21 ± 0.12.

Consider UniProt Q9BXW7 and related entries, for which the NP40-soluble protein abundance is 0.947 ± 0.04.

For UniProt Q9BQC6, the NP40-soluble protein abundance is 0.936 ± 0.028.

Consider UniProt Q9BYG3, for which the NP40-soluble protein abundance turned out to be 1.15 ± 0.13.

Turning to GRWD1 (UniProt Q9BQ67), the NP40-soluble protein abundance was determined as 1.13 ± 0.02.

As to SGPP1 (UniProt Q9BX95), the NP40-soluble protein abundance came to 0.936 ± 0.035.

With TCF25 (UniProt Q9BQ70), the NP40-soluble protein abundance was 1.11 ± 0.07.

As to UniProt Q99767-2, the NP40-soluble protein abundance amounted to 0.843 ± 0.096.

As to UniProt Q9BVJ6 and related entries, the NP40-soluble protein abundance came out at 1.22 ± 0.038.

Consider MRPL20 (UniProt Q9BYC9), for which the NP40-soluble protein abundance was 0.926 ± 0.18.

As to TARS2 (UniProt Q9BW92), the NP40-soluble protein abundance is 1.05 ± 0.042.

With ARPC5L (UniProt Q9BPX5), the NP40-soluble protein abundance was 0.943 ± 0.024.

Regarding UniProt Q9BV81, the NP40-soluble protein abundance was found to be 0.967 ± 0.015.

As for SH3GL1 (UniProt Q99961), the NP40-soluble protein abundance was 0.978 ± 0.035.

Consider RIOK1 (UniProt Q9BRS2), for which the NP40-soluble protein abundance was 1.19 ± 0.12.

Turning to NAPG (UniProt Q99747), the NP40-soluble protein abundance was found to be 0.914 ± 0.043.

Turning to DDA1 (UniProt Q9BW61), the NP40-soluble protein abundance was found to be 0.905 ± 0.044.

Turning to YTHDF1 (UniProt Q9BYJ9), the NP40-soluble protein abundance was found to be 1.06 ± 0.086.

GINS4 (UniProt Q9BRT9): the NP40-soluble protein abundance turned out to be 0.954 ± 0.031.

Regarding TSNAX (UniProt Q99598), the NP40-soluble protein abundance came out at 0.948 ± 0.011.

Take VPS25 (UniProt Q9BRG1): the NP40-soluble protein abundance was found to be 0.998 ± 0.11.

On to TRMT61B (UniProt Q9BVS5), for which the NP40-soluble protein abundance worked out at 1.01 ± 0.042.

For MRPL9 (UniProt Q9BYD2), the NP40-soluble protein abundance was 0.931 ± 0.16.

For the target UniProt Q99504 and related entries, the NP40-soluble protein abundance was found to be 0.985 ± 0.089.

The values above are taken from the supplement of paper PMC6411743.
